Reference: the OPERA property sets (Mansouri et al. 2018)

| SMILES | logP |
| --- | --- |
| CCn1cc(C(=O)O)c(=O)c2cc(F)c(N3CCN(C)CC3)cc21 | 0.27 |
| O=C(Nc1ccccc1)c1ccccc1 | 2.62 |
| NC(=O)NNc1ccccc1 | 0.13 |
| C[C@@H]1C[C@H]2[C@@H]3C[C@H](F)C4=CC(=O)C=C[C@]4(C)[C@@]3(F)[C@@H](O)C[C@]2(C)[C@@]1(O)C(=O)CO | 1.94 |
